According to PubChem BioAssay AID1439 (NMMLSC, 2008):
The campaign covered roughly 220,000 compounds. About 770 (0.35%) were called active. Inconclusive means that the source gave no clear call. Such entries were picked first, then a sample of the others. Cut-off read from the data, not from the text of the source: active = binding response below about 49% or above about 150%; inconclusive = no clear call, values can overlap the other calls; inactive = in between.

Chains of the proteins cited; added tags and fusions are not shown.
UniProt P09471, whole entry, looked up: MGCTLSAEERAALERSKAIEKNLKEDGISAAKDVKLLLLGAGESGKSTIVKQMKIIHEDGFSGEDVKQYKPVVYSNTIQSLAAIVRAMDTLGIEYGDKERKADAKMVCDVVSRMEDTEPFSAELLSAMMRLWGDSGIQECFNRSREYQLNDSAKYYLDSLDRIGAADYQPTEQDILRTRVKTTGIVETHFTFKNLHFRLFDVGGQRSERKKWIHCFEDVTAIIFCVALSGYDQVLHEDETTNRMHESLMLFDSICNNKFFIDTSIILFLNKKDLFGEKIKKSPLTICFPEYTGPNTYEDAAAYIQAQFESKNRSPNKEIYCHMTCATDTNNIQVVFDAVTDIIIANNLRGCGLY

The compounds below were run against Guanine nucleotide-binding protein G(o) subunit alpha (Homo sapiens) (UniProt P09471) (assay: RGS7-Galphao binding modulators, primary screen, biochemical, multiplexed bead flow cytometry (AID 1439;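 note: fluorescent Galphao held in activated GDP-AlF4 state binding bead-coupled RGS7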)). Conditions: at 10 µM, actives lie on both sides.

| Compound | binding response (% of control) |
| --- | --- |
| Cc1ccc(S(=O)(=O)N2CCN(CC(=O)N/N=C\c3ccc(O)c(O)c3)CC2)cc1 | inconclusive: 90% |
| CCN(C(=O)CSc1cc(C)c2ccc(OC)cc2n1)C1CCS(=O)(=O)C1 (stereo not drawn) | inconclusive: 107% |
| CN(CCc1cnn(C)c1)Cc1cn(C)nc1-c1ccccc1F | inconclusive: 108% |
| O=C(Cc1n[nH]c(=O)[nH]c1=O)N/N=C/c1ccccc1 | inactive: 102% |
| O=C1C(Cl)=C(N2CCOCC2)C(=O)N1CCc1ccccc1 | inactive: 106% |
| Cc1onc(-c2ccccc2)c1C(=O)N(Cc1ccccn1)Cc1ccccn1 | inconclusive: 84.9% |
| COc1ccc(-c2[nH]ncc2CN(C)Cc2c(C)n[nH]c2C)c(OC)c1 | inconclusive: 82.8% |
| COc1ccc(C2/C=C\CN(Cc3ccc(N(C)C)cc3)CC(=O)N2Cc2ccc(F)cc2)cc1 (stereo not drawn) | inconclusive: 102% |
| COc1c(/C=N/Nc2ccc(C(=O)O)cc2)c(CCN(C)C(C)=O)cc2c1OCO2 | inconclusive: 45.6% |
| COc1ccc(N2CCN(CC(=O)NCc3ccccc3)CC2)cc1 | inactive: 102% |
| O=C(Nc1ccc(Cl)cc1)c1cc2c(cc1O)[nH]c1ccccc12 | inconclusive: 90.8% |
| N#C/C(=C\c1ccc(-c2cccc([N+](=O)[O-])c2)o1)C(=O)Nc1nc(-c2cccs2)cs1 | inconclusive: 58.8% |
| CC(NCCC1(C(C)C)CCOC(C)(C)C1)c1cccs1 (stereo not drawn) | inconclusive: 104% |
| Cc1ccc(/C=C(\NC(=O)c2ccccc2)C(=O)N2CCCC2C(=O)O)cc1 (stereo not drawn) | inconclusive: 93.4% |
| C#CCOCCOCCOCCNc1nc(N2CCN(C(=O)[C@H]([C@@H](C)CC)n3cc([C@@H](N)CC(C)C)nn3)CC2)nc(N2CCN(C(=O)[C@H](Cc3cc4ccccc4[nH]3)n3cc([C@@H](N)C(C)CC)nn3)CC2)n1 (stereo partly drawn) | inconclusive: 51.3% |
| CCOC(=O)CCn1c(=S)n(CCC(=O)OCC)c2ccccc21 | inconclusive: 106% |
| S=C(NCc1ccco1)N/N=C/c1cccnc1 | inconclusive: 92.3% |
| CN(C)CCCNC(=S)Nc1ccc(Br)cc1 | inconclusive: 79% |
| COc1ccc(N=C(N(C)C)P(=O)(N(C)C)N(C)C)cc1 | inactive: 126% |
| COc1ccc2c(CC(=O)Nc3ccc(N4CCOCC4)cc3)coc2c1 | inconclusive: 85.9% |
| O=C(NCCSc1ccccc1)c1ccc(CN2CCOCC2)cc1 | inconclusive: 105% |
| Cc1ccc(CC(=O)c2ccc(Cl)cc2)cc1 | inconclusive: -53.6% |
| C=C(C)C1Cc2c(C)nn(-c3cccc4cccnc34)c2C1 (stereo not drawn) | inconclusive: 103% |

Two of the compounds above, with bars between the fields:
Compound | binding response (% of control)
S=C(NCc1ccco1)N/N=C/c1cccnc1 | inconclusive: 92.3%
COc1ccc(N=C(N(C)C)P(=O)(N(C)C)N(C)C)cc1 | inactive: 126%
